# Data published in paper doi:10.1101/2021.05.05.442573.
# Where a chain is given by its changes, count along the chain named. Names and notes keep the numbering of the source. No constants are given. Whether binding was seen depends on the method and setting. Binding seen in cells or lysates may run through a third protein. Some entries that bind do so weakly or less than the wild type.
# B1: ParB(A102C, H133C)-HT (protein, UniProt P26497 1-282)
# chain: MAKGLGKGINALFNQVDLSEETVEEIKIADLRPNPYQPRKHFDDEALAELKESVLQHGILQPLIVRKSLKGYDIVAGERRFRAAKLAGLDTVPAIVRELSECLMREIALLENLQREDLSPLEEAQAYDSLLKCLDLTQEQLAKRLGKSRPHIANHLRLLTLPENIQQLIAEGTLSMGHGRTLLGLKNKNKLEPLVQKVIAEQLNVRQLEQLIQQLNQNVPRETKKKEPVKDAVLKERESYLQNYFGTTVNIKRQKKKGKIEIEFFSNEDLDRILELLSERES
# B2: ParB(R105C, H133C, E111Q)-HT (protein, UniProt P26497 1-282)
# chain: B1 chain with C102A, R105C, E111Q
# B3: ParB(R105C, H133C, S278C)-HT in combination with E78Q (protein, UniProt P26497 1-282)
# chain: B1 chain with E78Q, C102A, R105C, S278C
# B4: ParB(R105C, H133C, S278C)-HT in combination with E111Q (protein, UniProt P26497 1-282)
# chain: B1 chain with C102A, R105C, E111Q, S278C
# B5: ParB(R105C, H133C)-HT (protein, UniProt P26497 1-282)
# chain: B1 chain with C102A, R105C
# B6: ParB(R105C, L134C)-HT (protein, UniProt P26497 1-282)
# chain: B1 chain with C102A, R105C, C133H, L134C
# B7: ParB(A102C, L134C)-HT (protein, UniProt P26497 1-282)
# chain: B1 chain with C133H, L134C
# B8: ParB(T22C)-HT (protein, UniProt P26497 1-282)
# chain: B1 chain with T22C, C102A, C133H
# B9: ParB(T22C, E78Q)-HT (protein, UniProt P26497 1-282)
# chain: B1 chain with T22C, E78Q, C102A, C133H
# B10: ParB(T22C, E111Q)-HT (protein, UniProt P26497 1-282)
# chain: B1 chain with T22C, C102A, E111Q, C133H
# B11: ParB(R105C, H133C, E78Q)-HT (protein, UniProt P26497 1-282)
# chain: B1 chain with E78Q, C102A, R105C
# Assays:
# Assay in all cases: cross-linking
# [1] = target: ParB(A102C, H133C)-HT (B. subtilis) (UniProt P26497)
# [2] = target: ParB(R105C, H133C, E111Q)-HT (B. subtilis) (UniProt P26497)
# [3] = target: ParB(R105C, H133C, S278C)-HT in combination with E78Q (B. subtilis) (UniProt P26497)
# [4] = target: ParB(R105C, H133C, S278C)-HT in combination with E111Q (B. subtilis) (UniProt P26497)
# [5] = target: ParB(R105C, H133C)-HT (B. subtilis) (UniProt P26497)
# [6] = target: ParB(R105C, L134C)-HT (B. subtilis) (UniProt P26497)
# [7] = target: ParB(A102C, L134C)-HT (B. subtilis) (UniProt P26497)
# [8] = target: ParB(T22C)-HT (B. subtilis) (UniProt P26497)
# [9] = target: ParB(T22C, E78Q)-HT (B. subtilis) (UniProt P26497)
# [10] = target: ParB(T22C, E111Q)-HT (B. subtilis) (UniProt P26497)
# [11] = target: ParB(R105C, H133C, E78Q)-HT (B. subtilis) (UniProt P26497)
binder,measurement,setting,value
B1,binding,[1],binds
B2,binding,[2],binds
B3,binding,[3],binds
B4,binding,[4],binds
B5,binding,[5],binds weakly
B6,binding,[6],binds weakly
B7,binding,[7],binds
B8,binding,[8],binds weakly
B9,binding,[9],binds
B10,binding,[10],binds
B11,binding,[11],binds
